Results are given in words; binding and its absence hold for the method and conditions named. Binding seen in cells or lysates may run through a third protein. Some binding calls cover weakened binding; strength is not graded here. Where a sequence is shown, tags or fusion partners need not be part of it.
Experiments:
[1] = molecular target: T1, GST-BI-2 fusion protein (human) (UniProt Q9NZS9); test: GST pull-down on glutathione SEPHAROSE, 35S-labeled in vitro translated protein, SDS-PAGE and autoradiography
T1 sequence: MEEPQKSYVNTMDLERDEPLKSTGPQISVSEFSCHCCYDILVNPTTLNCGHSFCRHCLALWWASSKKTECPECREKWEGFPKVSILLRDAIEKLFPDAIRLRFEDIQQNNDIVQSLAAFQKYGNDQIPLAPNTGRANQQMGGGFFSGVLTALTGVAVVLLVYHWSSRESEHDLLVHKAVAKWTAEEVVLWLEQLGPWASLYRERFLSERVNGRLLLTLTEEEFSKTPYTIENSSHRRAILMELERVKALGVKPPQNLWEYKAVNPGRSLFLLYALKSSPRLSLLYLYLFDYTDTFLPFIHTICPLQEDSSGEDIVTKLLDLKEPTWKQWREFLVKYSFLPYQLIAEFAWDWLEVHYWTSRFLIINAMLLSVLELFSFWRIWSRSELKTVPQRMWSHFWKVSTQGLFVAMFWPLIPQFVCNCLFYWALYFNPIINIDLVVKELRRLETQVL

[2] = molecular target: T1, GST-BI-2 fusion protein (human); test: GST pull-down (summary sentence of Example V)

B1: 35S-labeled in vitro translated HA-tagged BI-2 (protein, not shown: small tags and cut ends)
chain: T1 sequence
modifications: 35S-labeled methionine (in vitro translation)
- binding [1]: binds
- binding [2]: binds

Source: patent publication US6545128 (BURNHAM INSTITUTE, dated 2003)
